# ± gives the standard deviation. Only a part is listed here, and it is no random draw. Many of these values have a large error.
# System: EfPiwi piRISC loaded with piRNA #1 (26 nt)
# Experiment: pre-steady-state target cleavage rate (min^-1); guide: piRNA #1 5'p-UGAGGUAGUAGGUUGUAUAGUAUCCA; MIWI and MILI are mouse PIWI proteins and EfPiwi is from a freshwater sponge; tags in brackets are library labels; higher = faster piRNA-guided slicing of the target
# Details: auxiliary factor: 500 nM Ephydatia muelleri Gtsf1
# Method in brief: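 A burst-and-steady-state fit was used to obtain the pre-steady-state cleavage rate. The input data were sequencing reads of uncleaved targets, normalised to depth and to weakly complementary targets, from a […] transcribed, DNA-blocked target RNA library mixed with 1 nM active affinity-purified piRISC holding one synthetic guide, with or without 500 nM GTSF1 partner protein, in HEPES–potassium acetate buffer at 33 °C for 0–8 or 0–960 min. Three trials were pooled and k3 was capped at 0.0001 min^-1.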
row,Sequence,pre-steady-state target cleavage rate
1,GGAGACGAAACUUUACAACCUACUACCUCA,0.0147 ± 0.0064
2,GGAGACGAUACUAUACAUCCUUCUACCUCA,0.00356 ± 0.0021
3,GGAGAGGAUAGUAUACAACCUACUAGCUCA,0.00348 ± 0.0023
4,GGAGACCUAUGAUAUGUUCCUACUACCUACA,0.000101 ± 0.025
5,GGAGAGGAUACUAUUCAACGUACUACCUCA,0.00415 ± 0.0012
6,GGAGACCUAUGUAUACAACCUACUUACCUCA,0.000314 ± 0.011
7,GGAGACCUAUCUAUACAACCUACUUGCUCA,0.00118 ± 0.0058
8,GGAGACCUAACUAUAGAAGCUACUACCUCA,0.000937 ± 0.0079
9,GGAGACGAUACGUAUACAACCUACUACCUCA,0.00952 ± 0.0048
10,GGAGACCAUGCUAUACAACCUACUACCUCA,0.00746 ± 0.0043
11,GGAGACGAUACUUUACAACCUACUACCUGA,0.00356 ± 0.0024
12,GGAGACGAUACUAUACAACCUACUUGCUCA,0.00371 ± 0.0014
13,GGAGACCAUACUUUACAACGUACUACCUCA,0.00315 ± 0.0034
14,GGAGACCUAUGAUAUGUUGCUAGCUACCUCA,0.000894 ± 0.0046
15,GGAGACCAUACAAUACAACCUACUACCACA,0.00247 ± 0.004
16,GGAGACCUUACUAUACUACCUACUACCACA,0.00207 ± 0.0061
17,GGAGACCUAUCUAUACAACGUACAACCUCA,0.00155 ± 0.0056
18,GGAGUGGAUAGAUUACAACCUACUACCUCA,0.00432 ± 0.0045
19,GGAGUGGAUACUAUACAACGUACUACCUGA,0.00457 ± 0.0015
20,GGAGACCUAUCUAUCACAACCUACUACCUCA,0.00369 ± 0.0043

row,Sequence,pre-steady-state target cleavage rate
1,GGAGAGGAUACUAUACUACCUACUACCUGA,0.00353 ± 0.002
2,GGAGACCUUACUUAUACAACCUACUACCUCA,0.00736 ± 0.0041
3,GGAGACCUAUCUAUACAAGGUACUACCUCA,0.000911 ± 0.0033
4,GGAGACCUAUGAAUACAACCUACUACCUCU [g2:g18:cont:t1U],0.688 ± 0.25
5,GGAGUGGAUACAAUACAACCUAGUACCUCA,0.00305 ± 0.0021
6,GGAGAGGAUACUAAACUACCUACUACCUCA,0.00323 ± 0.003
7,GGAGUGGAUACUAUACAGCCUACUACCUCA,0.216 ± 0.073
8,GGAGAGGUUACUAUAGAACCUACUACCUCA,0.00277 ± 0.0023
9,GGAGUGGAUACUAUAGAAGCUACUACCUCA,0.00277 ± 0.0019
10,GGAGACCUAUCUUUACAACCUACUAGCUCA,0.00135 ± 0.0044
11,GGAGACCUUACUAUACUACCAACUACCUCA,0.000257 ± 0.011
12,GGAGACCUAUGUAUACAACCUACUAGGUCA,0.00127 ± 0.0057
13,GGAGACCUUACUAAACAACCUACUACCUGA,0.00102 ± 0.0046
14,GGAGACCUAACUAUCACAACCUACUACCUCA,0.00495 ± 0.0033
15,GGAGACCAUACUAUACAAACUACUACCUCA,0.00853 ± 0.0037
16,GGAGACCUAUCUAUACAACCUACUACCUUA,0.0739 ± 0.027
17,GGAGACCUAACAAUACAACCUAGUACCUCA,0.00204 ± 0.0036
18,GGAGACCUUACUAUAACAACCUACUACCUCA,0.00893 ± 0.0047
19,GGAGACCUAUGAUAUGAAGCUACUACGUCA,0.000768 ± 0.011
20,GGAGACCUAUGAUAUGAACUACUACCUCA,0.000221 ± 0.0087

# Reprinted at random: 2 records from the list, in no set order.
row,Sequence,pre-steady-state target cleavage rate
6,GGAGACCUAUGUAUACAACCUACUUACCUCA,0.000314 ± 0.011
17,GGAGACCUAACAAUACAACCUAGUACCUCA,0.00204 ± 0.0036

# From the supplement of paper PMC10338343
